A short description of series [1]: general procedure: Fmoc solid-phase peptide synthesis; Fmoc-Thr(tBu)-Wang resin. The settings on record: whole synthesis, scale 3026 g resin (0.7 mmol/g).
The nature of series [2]: general procedure: Fmoc solid-phase peptide synthesis; Fmoc-Thr(tBu)-Wang resin (0.7 mmol/g). The settings on record: for step yield / final purity (method not given): purification step; for step yield: recovery.
The mark [3] stands for this setting: whole synthesis, scale of the general procedure 3026 g resin.

As for “H-Asp-Glu-Asn-Pro-Val-Val-His-Phe-Phe-Lys-Asn-Ile-Val-Thr-Pro-Arg-Thr-OH (DENPVVHFFKNIVTPRT; printed: Asp-Glu-Asn-Pro-Val-Val-His-Phe-Phe-Lys-Asn-Ile-Val-Thr-Pro-Arg-Thr-)”, the crude mass in series [1] turned out to be 4.171 kg. Also, the step yield result in series [2] (run 1) is given as “recovery 22%”; in series [2] (run 2), “recovery 35%”; in series [2] (run 3), “recovery 36%”; in series [2] (run 4) it was “recovery 33%”; in series [2] (run 5) it was “recovery 48%”; in series [2] (run 6) it was “recovery 60%”. Besides, in series [2] (run 7), the step yield result is recorded as “recovery 69%”. The “final purity (method not given)” value in series [2] (run 1) stood at 89%; in series [2] (run 2), 91%; in series [2] (run 3), 94%; in series [2] (run 4), 97%; in series [2] (run 5), 98%; in series [2] (run 6), 98%. Moreover, the “final purity (method not given)” value in series [2] (run 7) came to 97%. Further, the “crude purity (method not given)” value in series [2] (setting [3]) came to 86%. This substance also had a crude yield in series [2] (setting [3]) of 68%.

For the origin of these results see patent US20120022228A1 (CENTRE NATIONAL DE LA RECHERCHE SCIENTIFIQUE, priority 2010, published 2012).
